PubChem BioAssay AID1159600 | NIAID, 2016

Assay: 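Which TLR pathway genes support TNF promoter activation by R848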 (primary screen)
System: human THP-1 TNF reporter clone B5, made macrophage-like with PMA
Knock-down reagent: single siRNA against human genes
Time to read-out: 4 h ligand stimulation, assayed 48 to 72 h after siRNA transfection
Challenge: R848 (TLR7/8 agonist) for 4 hours before lysis; dose not given
Read-out: 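Robust z-score of firefly over renilla TNF promoter signal after 4 h R848, plate median/MAD normalised, relative to negative controls, averaged across replicates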
Scale: TNF reporter z-score: higher = stronger TNF promoter reporter signal after R848
Hit rule: 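Active where mean z-score is about 1.5 or more from zero in either direction; depositor grades use cut-offs of 1, 1.5, 2 and 2.5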
Calls: active = strong change in TNF reporter (up or down); inactive = little change
Here is an unselected part of 756 deposited reagents. In the full data, 134 (18%) were called active. 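Active includes both reduced and increased reporter signal, though most active siRNAs reduce it; R848 dose unknown.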 Unmarked entries are inactive. Reagents against one gene are numbered here. Not given: the amount of reagent.

The first 6 records, to show the layout:
gene | reagent no. | TNF reporter z-score
RELA (RELA proto-oncogene, NF-kB subunit) | 1 | -0.178
RELA (RELA proto-oncogene, NF-kB subunit) | 2 | -0.642
RELA (RELA proto-oncogene, NF-kB subunit) | 3 | -0.566
RELA (RELA proto-oncogene, NF-kB subunit) | 4 | -1.33
RELA (RELA proto-oncogene, NF-kB subunit) | 5 | 0.284
RELA (RELA proto-oncogene, NF-kB subunit) | 6 | -1.24

Results, from the start:
gene | reagent no. | TNF reporter z-score
RELA (RELA proto-oncogene, NF-kB subunit) | 1 | -0.178
RELA (RELA proto-oncogene, NF-kB subunit) | 2 | -0.642
RELA (RELA proto-oncogene, NF-kB subunit) | 3 | -0.566
RELA (RELA proto-oncogene, NF-kB subunit) | 4 | -1.33
RELA (RELA proto-oncogene, NF-kB subunit) | 5 | 0.284
RELA (RELA proto-oncogene, NF-kB subunit) | 6 | -1.24
CASP8 (caspase 8) | 1 | -0.337
CASP8 (caspase 8) | 2 | -1.27
CASP8 (caspase 8) | 3 | -0.553
CASP8 (caspase 8) | 4 | -0.51
CASP8 (caspase 8) | 5 | -0.613
CASP8 (caspase 8) | 6 | -0.672
ELF4 (E74 like ETS transcription factor 4) | 1 | -2.84 (active)
ELF4 (E74 like ETS transcription factor 4) | 2 | -2.52 (active)
ELF4 (E74 like ETS transcription factor 4) | 3 | -1.33
ELF4 (E74 like ETS transcription factor 4) | 4 | -0.613
ELF4 (E74 like ETS transcription factor 4) | 5 | -1.33
ELF4 (E74 like ETS transcription factor 4) | 6 | -0.927
UBE2V1 (ubiquitin conjugating enzyme E2 V1) | 1 | -0.169
UBE2V1 (ubiquitin conjugating enzyme E2 V1) | 2 | -1.21
UBE2V1 (ubiquitin conjugating enzyme E2 V1) | 3 | 0.426
UBE2V1 (ubiquitin conjugating enzyme E2 V1) | 4 | -1.05
UBE2V1 (ubiquitin conjugating enzyme E2 V1) | 5 | -0.68
UBE2V1 (ubiquitin conjugating enzyme E2 V1) | 6 | 0.0946
IRF3 (interferon regulatory factor 3) | 1 | -2.49 (active)
IRF3 (interferon regulatory factor 3) | 2 | -0.779
IRF3 (interferon regulatory factor 3) | 3 | -1.11
IRF3 (interferon regulatory factor 3) | 4 | 0.374
IRF3 (interferon regulatory factor 3) | 5 | -1.34
IRF3 (interferon regulatory factor 3) | 6 | -1.39
MAPKAPK2 (MAPK activated protein kinase 2) | 1 | 0.497
MAPKAPK2 (MAPK activated protein kinase 2) | 2 | -0.222
MAPKAPK2 (MAPK activated protein kinase 2) | 3 | -1.03
MAPKAPK2 (MAPK activated protein kinase 2) | 4 | -0.759
MAPKAPK2 (MAPK activated protein kinase 2) | 5 | 0.179
MAPKAPK2 (MAPK activated protein kinase 2) | 6 | -0.188
MAP2K1 (mitogen-activated protein kinase kinase 1) | 1 | -0.797
MAP2K1 (mitogen-activated protein kinase kinase 1) | 2 | 1.32
MAP2K1 (mitogen-activated protein kinase kinase 1) | 3 | -1.47
MAP2K1 (mitogen-activated protein kinase kinase 1) | 4 | -0.318
MAP2K1 (mitogen-activated protein kinase kinase 1) | 5 | 0.547
MAP2K1 (mitogen-activated protein kinase kinase 1) | 6 | 1.39
IFNAR1 (interferon alpha and beta receptor subunit 1) | 1 | -0.51
IFNAR1 (interferon alpha and beta receptor subunit 1) | 2 | -1.82 (active)
IFNAR1 (interferon alpha and beta receptor subunit 1) | 3 | 0.601
IFNAR1 (interferon alpha and beta receptor subunit 1) | 4 | -1.33
IFNAR1 (interferon alpha and beta receptor subunit 1) | 5 | 0.288
IFNAR1 (interferon alpha and beta receptor subunit 1) | 6 | -0.568
